Measurements reported in publication PMC5352051, “Identification of a novel Polo-like kinase 1 inhibitor that specifically blocks the functions of Polo-Box domain” (Oncotarget, 2016).

Protein sequences, listed by entry. Tags and fused reporters are not part of them. Lines headed by an entry give the natural chain unless they say otherwise; changes in a name come on top.
UniProt P53350: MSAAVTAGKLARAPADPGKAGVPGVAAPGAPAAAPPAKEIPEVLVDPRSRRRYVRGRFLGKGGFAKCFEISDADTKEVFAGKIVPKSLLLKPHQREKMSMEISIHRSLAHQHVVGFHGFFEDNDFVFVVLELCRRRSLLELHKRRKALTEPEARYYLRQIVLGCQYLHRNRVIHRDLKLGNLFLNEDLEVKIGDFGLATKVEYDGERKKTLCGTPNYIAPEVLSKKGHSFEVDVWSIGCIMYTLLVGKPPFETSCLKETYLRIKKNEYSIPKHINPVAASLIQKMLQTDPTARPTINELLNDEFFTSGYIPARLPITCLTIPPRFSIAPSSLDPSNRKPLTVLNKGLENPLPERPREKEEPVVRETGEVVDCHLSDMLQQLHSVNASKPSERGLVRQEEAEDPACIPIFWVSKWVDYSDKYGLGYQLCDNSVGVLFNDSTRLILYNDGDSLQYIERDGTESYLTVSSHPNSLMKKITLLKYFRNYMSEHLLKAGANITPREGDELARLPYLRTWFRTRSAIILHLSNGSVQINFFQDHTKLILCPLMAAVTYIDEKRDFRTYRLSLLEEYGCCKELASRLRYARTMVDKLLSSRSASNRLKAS

Biological target: T1, GST-Map205^PBM (276-325 aa) (Drosophila) (UniProt P23226)
T1 sequence: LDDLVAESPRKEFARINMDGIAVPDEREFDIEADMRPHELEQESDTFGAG
Assay: ELISA; GST-Map205^PBM (10 ug/mL) coated on a 96-well plate; His-tagged Plk1 PBD (3 ug/mL) pre-incubated 45 min at RT with T521 or DMSO, then added; detected with mouse anti-His antibody and anti-mouse IgG-HRP, OD450; both purified

- binding: binds
Substance: Polo-Box domain (PBD) of Polo-like kinase 1 (Plk1), His-tagged (from UniProt P53350) (domain or fragment)

Results are given in words; binding and its absence hold for the method and conditions named. Binding can be weak; no strength is given. Where a sequence is shown, tags or fusion partners need not be part of it.
